Results published in article doi:10.1101/2022.03.17.484791.
Changes are numbered by the printed parent chain. These are yes or no findings as the source states them, for the method shown. For some assays here: Binding seen in cells or lysates may run through a third protein. Some results given as binding are weak or reduced against the parent protein; the word gives no strength. Where a sequence is shown, tags or fusion partners need not be part of it.

Sequences of proteins named here, by UniProt entry; tags and fusion partners are left off.
UniProt Q92973: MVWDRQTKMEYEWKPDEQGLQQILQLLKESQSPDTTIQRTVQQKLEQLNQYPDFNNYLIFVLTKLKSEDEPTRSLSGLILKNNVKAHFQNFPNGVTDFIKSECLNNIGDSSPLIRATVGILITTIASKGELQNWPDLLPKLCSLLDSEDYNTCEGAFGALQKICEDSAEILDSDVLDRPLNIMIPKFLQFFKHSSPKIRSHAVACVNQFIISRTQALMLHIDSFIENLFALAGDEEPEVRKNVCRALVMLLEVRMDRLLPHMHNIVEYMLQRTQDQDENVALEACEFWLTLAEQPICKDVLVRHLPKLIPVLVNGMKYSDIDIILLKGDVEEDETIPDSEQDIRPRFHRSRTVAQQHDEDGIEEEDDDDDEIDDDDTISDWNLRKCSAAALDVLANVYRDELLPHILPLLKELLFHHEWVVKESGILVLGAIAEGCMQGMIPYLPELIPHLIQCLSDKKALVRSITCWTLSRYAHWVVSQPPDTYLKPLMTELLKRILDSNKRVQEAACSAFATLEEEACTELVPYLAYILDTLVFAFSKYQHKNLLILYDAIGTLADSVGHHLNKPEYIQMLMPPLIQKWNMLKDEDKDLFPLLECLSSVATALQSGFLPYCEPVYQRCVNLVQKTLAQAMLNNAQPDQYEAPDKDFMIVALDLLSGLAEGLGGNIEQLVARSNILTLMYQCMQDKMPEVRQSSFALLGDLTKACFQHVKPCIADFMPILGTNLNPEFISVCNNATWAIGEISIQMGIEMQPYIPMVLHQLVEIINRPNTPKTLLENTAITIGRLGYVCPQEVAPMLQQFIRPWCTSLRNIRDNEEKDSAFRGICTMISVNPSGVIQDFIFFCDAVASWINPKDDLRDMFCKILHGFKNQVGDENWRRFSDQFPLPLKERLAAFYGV

Experiments:
[1] = biological target: T1, FLAG-hnRNPH2 R206G, full-length (human) (UniProt P55795); test: co-IP
T1 sequence: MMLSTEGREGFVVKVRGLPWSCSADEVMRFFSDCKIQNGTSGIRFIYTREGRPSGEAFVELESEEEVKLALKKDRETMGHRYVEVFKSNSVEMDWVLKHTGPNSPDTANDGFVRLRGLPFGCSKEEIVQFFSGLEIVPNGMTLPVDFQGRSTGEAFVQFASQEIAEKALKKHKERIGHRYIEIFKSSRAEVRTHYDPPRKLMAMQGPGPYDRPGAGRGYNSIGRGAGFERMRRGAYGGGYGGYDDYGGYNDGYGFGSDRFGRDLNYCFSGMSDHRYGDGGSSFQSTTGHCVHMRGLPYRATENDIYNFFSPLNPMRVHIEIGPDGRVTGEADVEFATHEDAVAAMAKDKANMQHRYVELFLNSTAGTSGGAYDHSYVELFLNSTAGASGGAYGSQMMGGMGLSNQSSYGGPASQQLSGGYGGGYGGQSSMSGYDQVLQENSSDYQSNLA

[2] = biological target: T2, FLAG-hnRNPH2 WT, full-length (human) (UniProt P55795); test: co-IP
T2 sequence: T1 sequence with G206R

[3] = biological target: T3, FLAG-hnRNPH2 D340V, full-length (human) (UniProt P55795); test: co-IP
T3 sequence: T1 sequence with G206R, D340V

[4] = biological target: T4, FLAG-hnRNPH2 P209L, full-length (human) (UniProt P55795); test: co-IP
T4 sequence: T1 sequence with G206R, P209L

[5] = biological target: T5, FLAG-hnRNPH2 R206Q, full-length (human) (UniProt P55795); test: co-IP
T5 sequence: T1 sequence with G206Q

[6] = biological target: T6, FLAG-hnRNPH2 R206W, full-length (human) (UniProt P55795); test: co-IP
T6 sequence: T1 sequence with G206W

[7] = biological target: T7, FLAG-hnRNPH2 Y210C, full-length (human) (UniProt P55795); test: co-IP
T7 sequence: T1 sequence with G206R, Y210C

[8] = biological target: T8, GST-hnRNPH2 PY-NLS WT (aa 169-225) (human) (UniProt P55795); test: pull-down
T8 sequence: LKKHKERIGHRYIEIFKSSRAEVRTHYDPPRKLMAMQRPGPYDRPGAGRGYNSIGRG

[9] = biological target: T9, GST-hnRNPH2 PY-NLS R206W (aa 169-225) (human) (UniProt P55795); test: pull-down
T9 sequence: T8 sequence with R38W

[10] = biological target: T10, GST-hnRNPH2 PY-NLS P209L (aa 169-225) (human) (UniProt P55795); test: pull-down
T10 sequence: T8 sequence with P41L

[11] = biological target: T11, GST-hnRNPH2 PY-NLS R206Q (aa 169-225) (human) (UniProt P55795); test: pull-down
T11 sequence: T8 sequence with R38Q

Measured: binding

Kapβ2, endogenous in HEK293T cells (from UniProt Q92973 1-898) (receptor)
not listed: [8] | [9] | [10] | [11]
binds: all other assays above

Kapβ2 (karyopherin β2), protein added at 8 μM in the GST pulldown (from UniProt Q92973 1-898) (receptor)
binds: [8] | [9] | [10] | [11]
